“Also recorded” adds a separate entry of the source. Part of at least one peptide drawing is inferred or uncertain, most often the ends. Where a SMILES comes first, the peptide text is derived from it. Where no end group is shown, it is not given here.
What was measured:
[1] = cis/trans isomer population in aqueous solution by NMR; format: physicochemical; details: cis amide bond at residue 6-Pro7, aqueous solution
Description: Peptide synthesis and sample preparation. The synthesis of the following peptides: AII (D^1-R^2—V^3—Y^4—I^5—H^6—P^7—F^8); [Y]^6-AII (D^1-R^2—V^3—Y^4—I^5—Y^6—P^7—F^8); [4-OPO3H2—F]^6-AII, (D^1-R^2—V^3—Y^4—I^5-(4-OPO3H2—F)^6—P^7—F^8), [F]^6-AII, (D^1-R^2—V^3—Y^4—I^5—F^6—P^7—F^8) and [4-NO2—F]^6-AII, (D^1-R^2—V^3—Y^4—I^5-(4-NO2—F)^6—P^7—F^8) was achieved using Fmoc/tBu methodology. 2-Chlorotrityl chloride resin and N^α-Fmoc (9-fluorenylmethyloxycarbonyl) amino acids were used for the synthesis. Peptide purity was assessed by analytical HPLC (Nucleosil-120 C18, reversed phase, 250×4.0 mm), mass spectrometry (FABMS, ESIMS) and amino acid analysis. The samples were prepared for NMR spectroscopy by dissolving the peptide in 0.01 M KPi buffer (pH=4), containing 0.02 M KCl. 2,2-dimethyl-2-sila-pentane sulfonate (DSS) was added to a concentration of 1 mM as an internal chemical shift reference. Peptide concentration was commonly 4 mM in 90% ^1H2O/10% ^2H2O. Trace amounts of NaN3 were added as a preservative.
Inter-proton distances for AII were derived by measuring cross-peak intensities in the NOESY spectra. Intensities were calibrated to give a set of distance constrains using the NMRVIEW software package. NOEs cross peaks were separated into three distance categories according to their intensity. […]

AT2R wild type = assay: Radioligand binding assays (saturation and competition), HEK293T membranes
Description: (§1) Cell culture and transient transfection. HEK293T cells were maintained at 37° C. in Dulbecco's modified Eagle's medium (DMEM) supplemented with 10% (v/v) fetal bovine serum (FBS), 2 mM glutamine, 100 U/ml penicillin, and 100 μg/ml streptomycin. Cells were seeded into 10 cm dish and 24 hours later were transfected with either AT1aR (pcDNA3.1) or AT2R (pcDNAI/Amp) using GeneJuice transfection reagent according to the manufacturer's instructions. Cells were harvested 48 hours after transfection. A pellet of transfected HEK293T cells (2×10^6 cells) was resuspended in ice-cold 0.5 ml binding buffer (50 mM Tris-HCl pH 7.4, 100 mM NaCl, 10 mM MgCl2, 1 mM EDTA, 0.2% BSA and 0.025% Bacitracin) containing protease inhibitors (Complete™, Roche). The cells were transferred to a 1.5 ml microcentrifuge tube and subjected to two cycles of freeze-thawing. The lysed cells were sheared by passaging seven times through a 26-gauge needle and the crude membranes were pelleted by ultracentrifugation (60 min, 120,000×g, 4° C.). The crude membranes were then resuspended in a final volume of 0.2 ml ice-cold binding buffer containing protease inhibitors corresponding to a protein concentration 3.3 μg/μl as determined by the amido black protein assay^45.
(§2) Radioligand binding assays. […] Non-specific binding was determined in presence of 6 μM cold AII. […] Samples were incubated for 2 hours at 4° C. Receptor-bound and free radioligand were separated by filtration through Whatman GF/B filters, pre-soaked with 0.3% polyethylamine. The filters were washed with 5 ml of ice-cold binding buffer and transferred to scintillation tubes. Radioactivity was counted on a Beckman LS6000 liquid scintillation counter and data were analyzed by non-linear regression using Prism software (GraphPad).

T47D = assay: Tumour cell proliferation assay (MTT); format: cell-based; details: AGTR1 Expressed
HCC1937 = assay: Tumour cell proliferation assay (MTT); format: cell-based; details: HCC1937, AGTR1 Expressed
MB 231 [2] = assay: Tumour cell proliferation assay (MTT); format: cell-based; details: MB 231, AGTR1 Silenced
ZR751 = assay: Tumour cell proliferation assay (MTT); format: cell-based; details: ZR751, AGTR1 Expressed
MB 468 = assay: Tumour cell proliferation assay (MTT); format: cell-based; details: MB 468, AGTR1 Silenced
BT549 = assay: Tumour cell proliferation assay (MTT); format: cell-based; details: BT549, AGTR1 Expressed
MB 231 [3] = assay: Wound healing assay (scratch protocol); format: cell-based
SKBR3 = assay: Tumour cell proliferation assay (MTT); format: cell-based; details: SKBR3, AGTR1 Expressed
MCF7 [4] = assay: Tumour cell proliferation assay (MTT); format: cell-based; details: MCF7, AGTR1 Expressed
[5] = system: AT2 over-expressing PC12W cells; assay: Neurite outgrowth in AT2 over-expressing PC12W cells; format: cell-based, rat; details: AT2R transduced PC12W cells, 1 nM ligand, 24 hours
HS578 = assay: Tumour cell proliferation assay (MTT); format: cell-based; details: HS578, AGTR1 Expressed
MCF7 [6] = assay: Wound healing assay (scratch protocol); format: cell-based
MB 435 = assay: Tumour cell proliferation assay (MTT); format: cell-based; details: MB 435, AGTR1 Silenced
MB 453 = assay: Tumour cell proliferation assay (MTT); format: cell-based; details: MB 453, AGTR1 Silenced
AT1aR = target: T1, AT1aR (Rattus norvegicus, UniProt P25095); assay: Radioligand binding assays (saturation and competition), HEK293T membranes
T1 construct: expressed in transfected cells; host or cells: HEK293T, transient, crude membranes
T1 sequence (P25095 1-359): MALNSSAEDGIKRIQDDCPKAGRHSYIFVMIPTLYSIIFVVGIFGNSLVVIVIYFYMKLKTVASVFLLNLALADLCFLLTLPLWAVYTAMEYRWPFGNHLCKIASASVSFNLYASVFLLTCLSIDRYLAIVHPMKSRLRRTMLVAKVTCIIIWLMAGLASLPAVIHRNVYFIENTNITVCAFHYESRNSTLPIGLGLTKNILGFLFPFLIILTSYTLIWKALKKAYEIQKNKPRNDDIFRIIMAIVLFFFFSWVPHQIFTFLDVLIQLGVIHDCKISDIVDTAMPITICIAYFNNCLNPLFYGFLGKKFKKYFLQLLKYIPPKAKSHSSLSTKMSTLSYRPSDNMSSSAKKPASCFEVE
Description: as §1, §2

MB 436 = assay: Tumour cell proliferation assay (MTT); format: cell-based; details: MB 436, AGTR1 Expressed
[7] = competition vs 2 nM [125I]-AII, 2 hours on ice, Cheng and Prusoff

Compound | %cis [1] [%] | Ki values for AT2R compared with the [Y]^6-AII ligand (in words) (AT2R wild type) | Ki (AT2R wild type; [7]) [nM] | IC50 (T47D) [nM] | IC50 (HCC1937) [nM] | IC50 (MB 231 [2]) [nM] | IC50 (ZR751) [nM] | IC50 (MB 468) [nM] | IC50 (BT549) [nM] | IC50 (MB 231 [3]) [nM] | IC50 (SKBR3) [nM] | IC50 (MCF7 [4]) [nM] | agonistic effect for AT2 receptor: neurite outgrowth (in words) [5] | IC50 (HS578) [nM] | IC50 (MCF7 [6]) [nM] | IC50 (MB 435) [nM] | IC50 (MB 453) [nM] | binding / affinity for AT1aR (in words) (AT1aR) | Ki (AT2R wild type; text value for AT2R) [nM] | IC50 (MB 436) [nM]
CC[C@H](C)[C@H](NC(=O)[C@H](Cc1ccc(O)cc1)NC(=O)[C@@H](NC(=O)[C@H](CCCNC(=N)N)NC(=O)[C@@H](N)CC(=O)O)C(C)C)C(=O)N[C@@H](Cc1ccc(OP(=O)(O)O)cc1)C(=O)N1CCC[C@H]1C(=O)N[C@@H](Cc1ccccc1)C(=O)O [[4-OPO3H2—F]^6-AII, D^1-R^2—V^3—Y^4—I^5-(4-OPO3H2—F)^6—P^7—F^8] (HELM PEPTIDE1{D.R.V.Y.I.[O=C([C@H](Cc1ccc(OP(=O)(O)O)cc1)N[*:1])[*:2]].P.F}$$$$V2.0) | ~25 | one order of magnitude larger | 93 | – | – | – | – | – | – | – | – | – | – | – | – | – | – | – | – | –
DRVYIYPF [[Y]^6-AII] | ~40 | – | 3.4 | 1000 | 100 | 0.1 | 1000 | 1 | 100 | 1 | 1000 | 1000 | stimulates the activity of AT2R; also recorded: significantly stimulated neurite outgrowth | 100 | 10 | 1 | 1 | could not observe any saturable binding | 3.4 ± 0.8 | 100
